Assay: general procedure: Fmoc solid-phase peptide synthesis; H-Rink amide Protide resin (0.56 mmol/g); manual: Rink amide MBHA or 2-chlorotrityl chloride resin; Cl-TCP(Cl) ProTide r; DIC/Oxyma; DIC/HOBt; PyBOP/HOAt/DIEA
Conditions: whole synthesis, synthesis and purification, scale of the general procedure 100 umol (manual), 500 umol / 0.5 mmol (microwave automated)

Row | Substance | isolated yield
1 | Hexynoic-TTDS-Dap-Lys-Ala-Pro-Glu-Thr-Ala-Leu-Asp-NH2 (hexynoic-TTDS-SEQ ID NO: 7) with a amide bond between Dap side-chain amino group and Asp side-chain carboxilic acid | 7.5%
2 | Hexynoic-TTDS-Dap-Lys-Ala-Pro-Glu-Thr-Ala-Leu-Asp-NH2 (hexynoic-TTDS-SEQ ID NO: 14) | 9%
